These results are taken from patent US8999981B2, “3-amido-pyrrolo[3,4-C]pyrazole-5(1H, 4H,6H) carbaldehyde derivatives” (Pfizer Inc., priority 2007, dated 2015).

The chains behind the UniProt entries cited, without tags or fusion partners. A line that says so, or that is headed by a name, gives the form on record, which may keep a tag or linker. Residues count along the entry.
UniProt P05771, 1-621 with tags or gaps limits assumed: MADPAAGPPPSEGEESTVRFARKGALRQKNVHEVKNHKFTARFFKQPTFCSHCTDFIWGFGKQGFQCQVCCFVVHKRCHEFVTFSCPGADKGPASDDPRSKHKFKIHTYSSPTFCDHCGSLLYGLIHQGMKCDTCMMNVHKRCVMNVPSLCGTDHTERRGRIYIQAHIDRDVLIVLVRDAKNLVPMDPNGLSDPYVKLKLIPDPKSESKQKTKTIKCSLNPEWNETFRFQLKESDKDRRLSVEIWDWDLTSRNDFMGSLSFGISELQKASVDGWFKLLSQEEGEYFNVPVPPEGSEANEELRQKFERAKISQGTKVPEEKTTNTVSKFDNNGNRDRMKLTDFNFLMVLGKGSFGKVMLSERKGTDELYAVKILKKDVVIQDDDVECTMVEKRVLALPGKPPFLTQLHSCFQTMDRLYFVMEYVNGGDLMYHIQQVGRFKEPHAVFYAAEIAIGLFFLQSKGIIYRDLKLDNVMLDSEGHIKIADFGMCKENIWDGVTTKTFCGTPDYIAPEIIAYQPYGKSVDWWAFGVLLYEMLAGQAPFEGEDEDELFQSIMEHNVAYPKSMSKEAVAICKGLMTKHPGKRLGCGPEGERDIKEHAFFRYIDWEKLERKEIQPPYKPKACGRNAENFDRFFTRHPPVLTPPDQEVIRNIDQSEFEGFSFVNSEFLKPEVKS

Where two headings read alike, the source gives them in different places. The match of structure and compound is tentative.

This experiment concerns the target Protein Kinase C beta 2 (PKCβII) (Homo sapiens (Human), UniProt P05771). Put plainly: PKCβII coupled PK/LDH spectrophotometric kinase assay. In kind it is biochemical. The note with it: read-out: PKCb Ki.
Where [1] appears, read: apparent Ki, ATP-competitive model (Morrison equation), 0.1 mM ATP, 30° C.

As for `CCN1C[C@H](C)N(C(=O)N2Cc3c(NC(=O)c4ccccn4)n[nH]c3C2(C)C)C[C@H]1C` [Example A95], the Ki amounted to 0.0195 µM. On to `CCc1cc(C(=O)Nc2n[nH]c3c2CN(C(=O)N2C[C@@H](C)N(CC4CCOCC4)C[C@@H]2C)C3(C)C)n(C)n1`, for which the Ki under setting [1] was less than 0.01 µM. Turning to `C[C@H]1CN2CCC[C@@]2(C)CN1C(=O)N1Cc2c(NC(=O)c3ccccn3)n[nH]c2C1(C)C`, under setting [1], the Ki came out at 0.0576 µM. As to `COCCN1C[C@H](C)N(C(=O)N2Cc3c(NC(=O)c4ccccn4)n[nH]c3C2(C)C)C[C@H]1C` [Example A93], the Ki worked out at 0.0388 µM. In the case of `C[C@@H]1CN(C(=O)N2Cc3c(NC(=O)c4ncccn4)n[nH]c3C2(C)C)[C@@H](C)CN1C`, under setting [1], the Ki came out at 0.0961 µM.
